The supplement of paper PMC7661543
± gives the standard deviation of the averaged measurements. Differences between knockout arms are mostly noise.

Tests used:
Assay in all cases: relative cell number vs DMSO control (72 h) (% of DMSO); higher = less growth inhibition (more cells)
MDA-MB-231 = system: MDA-MB-231
Procedure: (§1)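 QMAP-Seq: a pool of 5 breast cancer cell lines (ZR-75-1, SKBR3, HCC-38, MDA-MB-231, BT-20), each carrying 12 doxycycline-inducible Cas9 sgRNA perturbations (11 knockouts plus non-targeting sgNT), was treated with compounds for 72 h at four 10-fold doses (10 nM-10 uM or 1 nM-1 uM range). Barcodes were amplified and sequenced, and cell number was interpolated from 293T spike-in standard curves. The result is expressed as % of the median of DMSO wells. Two biological replicates.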

ZR-75-1 = system: ZR-75-1
Procedure: as §1

SKBR3 = system: SKBR3
Procedure: as §1

O=[N+]([O-])c1ccc(O)c2ncccc12 [Nitroxoline]
relative cell number
Conditions	MDA-MB-231	SKBR3	ZR-75-1
sgRNA knockout: sgATF3, 10 nM	91.3 ± 13	98.8 ± 27	99.1 ± 17
sgRNA knockout: sgATF3, 100 nM	96.8 ± 8	101 ± 2.6	96 ± 22
sgRNA knockout: sgATF3, 1000 nM	94.1 ± 27	72.1 ± 18	91.7 ± 56
sgRNA knockout: sgATF3, 10000 nM	45.9 ± 5.2	52.4 ± 20	51.5 ± 10
sgRNA knockout: sgATF4, 10 nM	84.4 ± 38	105 ± 5.2	99.2 ± 56
sgRNA knockout: sgATF4, 100 nM	128 ± 4.8	88.5 ± 12	82.9 ± 28
sgRNA knockout: sgATF4, 1000 nM	79.9 ± 8.7	82.2 ± 12	91 ± 32
sgRNA knockout: sgATF4, 10000 nM	43 ± 9.1	56.8 ± 8.2	50.4 ± 9.6
sgRNA knockout: sgATF6, 10 nM	101 ± 28	96.5 ± 26	44.5 ± 0.95
sgRNA knockout: sgATF6, 100 nM	86.2 ± 26	85.9 ± 7.7	117 ± 45
sgRNA knockout: sgATF6, 1000 nM	67.6 ± 23	88.2 ± 28	92.5 ± 48
sgRNA knockout: sgATF6, 10000 nM	37.2 ± 6	76.6 ± 26	35.7 ± 0.75
sgRNA knockout: sgATG7, 10 nM	86.4 ± 1.7	80.1 ± 20	77.8 ± 39
sgRNA knockout: sgATG7, 100 nM	71.9 ± 5.8	94 ± 22	102 ± 17
sgRNA knockout: sgATG7, 1000 nM	78.8 ± 1.1	75.3 ± 0.92	79.1 ± 9
sgRNA knockout: sgATG7, 10000 nM	36.9 ± 9.3	56.7 ± 9.9	42.2 ± 1.6
sgRNA knockout: sgERN1, 10 nM	82.2 ± 12	97.9 ± 27	87.1 ± 20
sgRNA knockout: sgERN1, 100 nM	94.9 ± 14	89.4 ± 11	85.7 ± 21
sgRNA knockout: sgERN1, 1000 nM	95.7 ± 10	83.6 ± 29	85.8 ± 7.1
sgRNA knockout: sgERN1, 10000 nM	30.6 ± 4.3	55.42 ± 0.48	37.8 ± 8.6
sgRNA knockout: sgHSF1, 10 nM	92.6 ± 12	71 ± 3.5	–
sgRNA knockout: sgHSF1, 100 nM	74.4 ± 0.77	85.9 ± 1.7	–
sgRNA knockout: sgHSF1, 1000 nM	75.6 ± 6.2	89.1 ± 7.5	–
sgRNA knockout: sgHSF1, 10000 nM	40.5 ± 7	56.5 ± 0.73	–
sgRNA knockout: sgHSF2, 10 nM	89.6 ± 32	95.4 ± 3.7	85.5 ± 6.9
sgRNA knockout: sgHSF2, 100 nM	111 ± 12	79.5 ± 2.6	89.9 ± 11
sgRNA knockout: sgHSF2, 1000 nM	87.5 ± 21	89.8 ± 7.8	87.4 ± 13
sgRNA knockout: sgHSF2, 10000 nM	42.8 ± 6.5	53.2 ± 8.1	40.6 ± 4.1
sgRNA knockout: sgKEAP1, 10 nM	101 ± 24	104 ± 13	–
sgRNA knockout: sgKEAP1, 100 nM	87.5 ± 11	85.14 ± 0.097	–
sgRNA knockout: sgKEAP1, 1000 nM	87.6 ± 26	88.4 ± 13	–
sgRNA knockout: sgKEAP1, 10000 nM	35.7 ± 6.4	53 ± 1.5	–
sgRNA knockout: sgNFE2L2, 10 nM	109 ± 3.2	89.1 ± 16	84.3 ± 10
sgRNA knockout: sgNFE2L2, 100 nM	62.4 ± 10	89.1 ± 1.1	78.4 ± 3.6
sgRNA knockout: sgNFE2L2, 1000 nM	79.8 ± 14	98.9 ± 6.9	89.2 ± 15
sgRNA knockout: sgNFE2L2, 10000 nM	38.49 ± 0.18	53.2 ± 25	41 ± 2.8
sgRNA knockout: sgSLC35F2, 10 nM	83.7 ± 8.5	82.1 ± 3.6	65.9 ± 11
sgRNA knockout: sgSLC35F2, 100 nM	75.4 ± 1.8	88.9 ± 1.9	77.4 ± 6.7
sgRNA knockout: sgSLC35F2, 1000 nM	84 ± 28	112 ± 4	36.6 ± 15
sgRNA knockout: sgSLC35F2, 10000 nM	38 ± 2.8	57.5 ± 9.8	40.1 ± 15
sgRNA knockout: sgXBP1, 10 nM	95.69 ± 0.14	131 ± 4	100 ± 17
sgRNA knockout: sgXBP1, 100 nM	87.5 ± 12	97.2 ± 23	87 ± 9.8
sgRNA knockout: sgXBP1, 1000 nM	94.1 ± 17	93.4 ± 2.8	95.6 ± 5.3
sgRNA knockout: sgXBP1, 10000 nM	32.8 ± 12	68.7 ± 14	33.1 ± 6.6

Cc1ccc2c(c1)C(=O)C1(O)CCN(c3ccccc3)C1=N2 (stereo not drawn) [Blebbistatin]
relative cell number
Conditions	MDA-MB-231	SKBR3	ZR-75-1
sgRNA knockout: sgATF3, 10 nM	129 ± 3.8	146 ± 27	140 ± 9
sgRNA knockout: sgATF3, 100 nM	124.4 ± 0.55	145 ± 2.7	148 ± 9.2
sgRNA knockout: sgATF3, 1000 nM	122 ± 23	141 ± 31	139 ± 26
sgRNA knockout: sgATF3, 10000 nM	97.8 ± 20	100 ± 42	94.4 ± 17
sgRNA knockout: sgATF4, 10 nM	152 ± 7.7	114.7 ± 0.37	129 ± 10
sgRNA knockout: sgATF4, 100 nM	148 ± 3.1	144 ± 4.7	137 ± 21
sgRNA knockout: sgATF4, 1000 nM	147 ± 20	107 ± 3.6	170 ± 15
sgRNA knockout: sgATF4, 10000 nM	87.6 ± 26	100.7 ± 0.46	112 ± 42
sgRNA knockout: sgATF6, 10 nM	91.7 ± 6.5	113 ± 4.3	84.8 ± 8
sgRNA knockout: sgATF6, 100 nM	102 ± 9.8	119 ± 8.9	107 ± 16
sgRNA knockout: sgATF6, 1000 nM	136 ± 20	133 ± 9.2	103.9 ± 0.34
sgRNA knockout: sgATF6, 10000 nM	79.3 ± 10	111 ± 29	129 ± 27
sgRNA knockout: sgATG7, 10 nM	119 ± 13	113 ± 3.1	106 ± 3.2
sgRNA knockout: sgATG7, 100 nM	112 ± 25	144 ± 25	113 ± 59
sgRNA knockout: sgATG7, 1000 nM	118 ± 12	154 ± 24	134 ± 12
sgRNA knockout: sgATG7, 10000 nM	72.5 ± 1.7	126 ± 32	68 ± 4.9
sgRNA knockout: sgERN1, 10 nM	124 ± 19	122 ± 25	151 ± 15
sgRNA knockout: sgERN1, 100 nM	116 ± 24	109 ± 27	126 ± 19
sgRNA knockout: sgERN1, 1000 nM	110 ± 7.8	139 ± 10	113 ± 10
sgRNA knockout: sgERN1, 10000 nM	84 ± 14	113 ± 3.7	80.9 ± 10
sgRNA knockout: sgHSF1, 10 nM	119.6 ± 0.82	142 ± 28	–
sgRNA knockout: sgHSF1, 100 nM	102 ± 9.5	113 ± 1.6	–
sgRNA knockout: sgHSF1, 1000 nM	93.2 ± 22	125 ± 19	–
sgRNA knockout: sgHSF1, 10000 nM	64.27 ± 0.27	84.3 ± 22	–
sgRNA knockout: sgHSF2, 10 nM	115 ± 6.5	109 ± 20	130 ± 14
sgRNA knockout: sgHSF2, 100 nM	140 ± 31	128 ± 8.6	111 ± 9.3
sgRNA knockout: sgHSF2, 1000 nM	109 ± 18	127 ± 18	126 ± 49
sgRNA knockout: sgHSF2, 10000 nM	84.7 ± 6.5	102 ± 18	89.5 ± 23
sgRNA knockout: sgKEAP1, 10 nM	105 ± 9.8	113 ± 17	–
sgRNA knockout: sgKEAP1, 100 nM	130 ± 2.8	114 ± 16	–
sgRNA knockout: sgKEAP1, 1000 nM	98 ± 1.8	113.83 ± 0.081	–
sgRNA knockout: sgKEAP1, 10000 nM	103 ± 20	108 ± 14	–
sgRNA knockout: sgNFE2L2, 10 nM	115 ± 8.9	126 ± 2.1	112 ± 7.5
sgRNA knockout: sgNFE2L2, 100 nM	118.5 ± 0.53	129 ± 30	140 ± 8.5
sgRNA knockout: sgNFE2L2, 1000 nM	114 ± 22	144 ± 21	141 ± 21
sgRNA knockout: sgNFE2L2, 10000 nM	82.7 ± 40	102 ± 9.1	140 ± 2.1
sgRNA knockout: sgSLC35F2, 10 nM	110 ± 16	100 ± 19	96.9 ± 37
sgRNA knockout: sgSLC35F2, 100 nM	115 ± 24	124 ± 17	158 ± 80
sgRNA knockout: sgSLC35F2, 1000 nM	101 ± 4.7	125 ± 12	202 ± 9.2
sgRNA knockout: sgSLC35F2, 10000 nM	75.2 ± 2.1	104 ± 8.4	111 ± 50
sgRNA knockout: sgXBP1, 10 nM	124 ± 43	131 ± 7.1	108 ± 4.2
sgRNA knockout: sgXBP1, 100 nM	118 ± 20	118 ± 28	119 ± 10
sgRNA knockout: sgXBP1, 1000 nM	123 ± 6.2	144 ± 28	121 ± 16
sgRNA knockout: sgXBP1, 10000 nM	87.2 ± 16	129 ± 15	105 ± 1.4
